Test results published in article PMC9998662.
Results are given in words; binding and its absence hold for the method and conditions named. In cells and extracts the contact can be indirect. These calls come from enrichment with a bait or labelling near it, and not all partners need be listed.

By UniProt entry, the sequences of proteins in these tests, tags left out.
UniProt P70429: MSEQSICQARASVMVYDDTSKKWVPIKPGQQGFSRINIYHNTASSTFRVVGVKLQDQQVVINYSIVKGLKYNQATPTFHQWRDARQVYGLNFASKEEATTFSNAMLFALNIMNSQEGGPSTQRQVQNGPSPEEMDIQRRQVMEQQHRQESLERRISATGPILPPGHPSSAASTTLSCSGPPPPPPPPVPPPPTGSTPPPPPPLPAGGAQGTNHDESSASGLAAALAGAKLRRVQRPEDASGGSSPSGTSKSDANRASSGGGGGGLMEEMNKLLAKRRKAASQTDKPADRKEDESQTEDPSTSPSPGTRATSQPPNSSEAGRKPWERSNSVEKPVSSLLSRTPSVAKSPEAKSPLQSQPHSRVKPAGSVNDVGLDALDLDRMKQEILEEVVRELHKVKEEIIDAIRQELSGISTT

Molecular target: EVL (endogenous, primary mouse cortical neuron cultures) (mouse (endogenous in primary cortical neuron cultures)) (UniProt P70429)
Assay: affinity purification with mass spectrometry; endogenous EVL precipitated with mouse monoclonal anti-EVL (control: mouse IgG) from lysates of D11 primary mouse cortical neuron cultures; IP buffer 10% glycerol, 1% NP-40, 50 mM Tris pH 7.5, 200 mM NaCl, 2 mM MgCl2; overnight at 4°C; Protein A/G beads; in-gel digestion, LC-MS/MS

binding: binds
B1: MIM/MTSS1 (endogenous, primary mouse cortical neuron cultures) (protein, UniProt Q8R1S4 1-759)
chain: MEAVIEKECSALGGLFQTIISDMKGSYPVWEDFINKAGKLQSQLRTTVVAAAAFLDAFQKVADMATNTRGGTREIGSALTRMCMRHRSIEAKLRQFSSALIDCLINPLQEQMEEWKKVANQLDKDHAKEYKKARQEIKNKSSDTLKLQKKAKKVDAQGRGDIQPQLDSALQDVNDKYLLLEETEKQAVRKALIEERGRFCTFISMLRPVIEEEISMLGEITHLQTISEDLKSLTMDPHKLPSSSEQVILDLKGSDYSWSYQTPPSSPSTTMSRKSSVCSSLNSVNSSDSRSSGSHSHSPSSHYRYRSSNLAQQAPVRLSSVSSHDSGFISQDAFQSKSPSPMPPEAANQLSNGFSHCSLSSESHAGPVGAGPFPHCLPASRLLPRVTSVHLPDYAHYYTIGPGMFPSSQIPSWKDWAKPGPYDQPLVNTLQRRKEKREPDSNGGGPTTTGGPPAGAEEAQRPRSMTVSAATRPGEEMAACEELTLALSRGLQLDVQRSSRDSLQCSSGYSTQTTTPCCSEDTIPSQVSDYDYFSVSGDQEAEQQEFDKSSTIPRNSDISQSYRRMFQAKRPASTAGLPTTLGPAMVTPGVATIRRTPSTKPSVRRGTIGAGPIPIKTPVIPVKTPTVPDLPGVLPSPPDGPEERGEHSPESPSAGEGPQGVSNIPSSLWSGQAPVNPPLPGPKPSIPEEHRQAIPESEAEDQERDPPSATVSPGPIPESDPADLSPRESPQGEDMLNAIRRGVKLKKTTTNDRSAPRFS
